According to PubChem BioAssay AID504467 (National Center for Advancing Translational Sciences (NCATS), 2011):
Among all 330,000 compounds or so, about 7,700 (2.3%) were called active. Inconclusive means that the source gave no clear call. Such entries were picked first, then a sample of the others. Calls follow the shape of the dose curve; as a rule, active = well fitted inhibition curve with a large enough effect; inconclusive = small, poorly fitted or top-dose-only effect, or effect the other way; inactive = flat fitted curve, though single readings scatter. Potencies beside an inconclusive call are fits to weak or partial responses and may not hold up.

Test: qHTS screen for small molecules that inhibit ELG1-dependent DNA repair in human embryonic kidney (HEK293T) cells expressing luciferase-tagged ELG1; also: nearly all actives have a fitted effect of over 55% in size
Settings: HEK293T ELG1-luciferase reporter, luminescence, 16 h, DNA damage induced by 5-fluorouridine; activity change, negative = inhibition: at 46.1 µM (top of the series)
Procedure, shortened: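 Overnight (16 hr) co-exposure of 2,000 cells/well to 5-fluorouridine and compound at 37 °C preceded detection. Luciferase was quantified via ONE-Glo luminescence; loss of signal denotes inhibition.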
% is scaled to controls: 0 for no effect and ±100 for the full control effect; potency is read from the fitted curve at half-maximal effect.

Row | Structure (SMILES) | Potency | activity change, negative = inhibition
1 | O=C(N/N=C/c1cccc(O)c1)c1cc(-c2ccc3c(c2)OCO3)n[nH]1 | inconclusive: 6.51 µM [inhibitor, single point] | –
2 | COc1ccc(NC(=O)CN(c2ccc(C(C)C)cc2)S(=O)(=O)c2c(C)noc2C)cc1OC | inconclusive: 3.26 µM [inhibitor, partial curve, poor fit] | –
3 | Cc1cc2ccccc2n1CCNC(=O)C1CC1 | – | inactive: 7.65%
4 | COc1ccc(NC(=O)C2CCCN(S(=O)(=O)c3ccc4c(c3)CCCN4C(C)=O)C2)cc1Cl (centres undefined) | inconclusive: 16.4 µM [inhibitor, partial curve, poor fit] | –
5 | Cc1cc(-c2nnc3n2CCCCC3)c(C)n1-c1ccccc1 | inconclusive: 16.4 µM [activator, partial curve, poor fit] | –
6 | CN(C)c1ccnc2sc3c(=O)n(Cc4ccccc4)cnc3c12 | active: 4.61 µM | –
7 | O=C(Nc1ccc(OC(F)F)cc1)c1ncc(Cl)c(Cl)c1Cl | – | inactive: -1.85%
8 | CCOC(=O)N1CCN(C(=O)/C(=C/c2ccc(OC)c(OC)c2)NC(=O)c2ccccc2)CC1 | – | inactive: 8.36%
9 | Cc1cc(C)c2c(c1)/C(=c1/sc3n(c1=O)CN(c1ccccc1)CN=3)C(=O)N2 | inconclusive: 20.6 µM [activator, partial curve, poor fit] | –
10 | Cc1c(/C=N/NC(=O)COc2ccccc2[N+](=O)[O-])c2ccccc2n1C | inconclusive: 32.6 µM [inhibitor, partial curve, poor fit] | –
11 | O=C(Nc1nonc1NC(=O)C1CCCCC1)C1CCCCC1 | inconclusive: 20.6 µM [inhibitor, single point] | –
12 | COc1ccc(CNC(=O)c2[nH]c(C)c(C(C)=O)c2C)cc1 | – | inactive: -16.2%
13 | O=C(Nc1ccc(-c2nc3ncccc3o2)cc1)c1ccco1 | inconclusive: 5.8 µM [activator, partial curve] | –
14 | Cc1ccc2c(c1)S/C(=C/c1ccc[n+](CCO)c1)N2C | active: 2.91 µM | –
15 | Cc1ccc(OCc2cc(C(=O)Nc3ccccc3)oc2C)cc1 | inconclusive: 23.1 µM [activator, partial curve] | –
16 | Nc1ncnc2c1ncn2[C@@H]1O[C@H](CNCc2ccc(OCC(=O)Nc3ccccn3)cc2)[C@@H](O)[C@H]1O | inconclusive: 13 µM [activator, partial curve] | –
17 | CC(C)CCNC(=O)C(c1cccs1)N(CC1CCCO1)C(=O)Cn1nnc2ccccc21 (centres undefined) | inconclusive: 6.51 µM [inhibitor, single point] | –
18 | O=C(CSc1cccc[n+]1[O-])c1ccc(-c2ccccc2)cc1 | inconclusive: 20.6 µM [activator, partial curve] | –
19 | Cc1ccc2c(C)[nH]c(=O)cc2c1 | inconclusive: 16.4 µM [inhibitor, partial curve] | –
20 | CC1SCC(=NOCc2c(Cl)cccc2Cl)CS1 (centres undefined) | inconclusive: 29.1 µM [activator, single point] | –
21 | Clc1ccc(-c2csc(NNC3=NCCCCC3)n2)cc1 | inconclusive: 18.4 µM [activator, single point] | –
22 | O=C(CNC(=O)C(c1ccccc1)c1ccccc1)N/N=C/c1ccc(O)cc1O | inconclusive: 5.17 µM [inhibitor, partial curve] | –
23 | CCOC(=O)c1sc2ncn(/N=C/c3ccc(O)cc3)c(=O)c2c1C | inconclusive: 29.1 µM [inhibitor, single point] | –

Part of the list above, in markdown.

| Row | Structure (SMILES) | Potency | activity change, negative = inhibition |
| --- | --- | --- | --- |
| 4 | COc1ccc(NC(=O)C2CCCN(S(=O)(=O)c3ccc4c(c3)CCCN4C(C)=O)C2)cc1Cl (centres undefined) | inconclusive: 16.4 µM [inhibitor, partial curve, poor fit] | – |
| 11 | O=C(Nc1nonc1NC(=O)C1CCCCC1)C1CCCCC1 | inconclusive: 20.6 µM [inhibitor, single point] | – |
| 17 | CC(C)CCNC(=O)C(c1cccs1)N(CC1CCCO1)C(=O)Cn1nnc2ccccc21 (centres undefined) | inconclusive: 6.51 µM [inhibitor, single point] | – |
| 21 | Clc1ccc(-c2csc(NNC3=NCCCCC3)n2)cc1 | inconclusive: 18.4 µM [activator, single point] | – |

Further structures follow:

Row | Structure (SMILES) | Potency | activity change, negative = inhibition
24 | COc1ccc(NC(=O)c2coc(C)c2)cc1 | inconclusive: 18.3 µM [activator, partial curve] | –
25 | COc1ccccc1CNC(=O)COc1ccc2c(c1)CCC2 | inconclusive: 16.4 µM [inhibitor, single point] | –
26 | Cn1c(SCc2nnc(-c3ccc(F)cc3)o2)nnc1C1COc2ccccc2O1 (centres undefined) | inconclusive: 18.4 µM [activator, single point] | –
27 | O=C(COC(=O)c1ccc(F)c(S(=O)(=O)N2CCOCC2)c1)Nc1ccc2c(c1)OCO2 | – | inactive: -0.0327%
28 | O=C(N=Nc1c(O)[nH]c2ccccc12)c1ccc(CN2CCOCC2)cc1 | – | inactive: 11.1%
29 | CCN1C(=O)/C(=C2/Sc3ccc(OC)cc3N2C)SC1=Nc1cccc(O)c1 | – | inactive: -8.57%
30 | COc1ccccc1-c1nnc(C2CCN(S(=O)(=O)c3ccc([N+](=O)[O-])cc3)CC2)o1 | inconclusive: 16.4 µM [inhibitor, partial curve, poor fit] | –
31 | CCc1ccc(NC(=O)CCc2c(C)nn(-c3ccc(N4CCCCC4)nn3)c2C)cc1 | inconclusive: 32.6 µM [inhibitor, single point] | –
32 | O=C(CN1CCCC1)N/N=C/c1ccc(-c2cccc(Cl)c2)o1 | – | inactive: 1.12%
33 | CC(=O)c1ccc(OCCCC(=O)Nc2cccc(S(=O)(=O)N3CCOCC3)c2)cc1 | inconclusive: 29.1 µM [inhibitor, single point] | –
34 | Cc1ccc(-c2nc3c(c(SCC(=O)N4CCOCC4)n2)Cc2c(CO)cnc(C)c2O3)cc1 | inconclusive: 25.9 µM [inhibitor, partial curve, poor fit] | –
35 | COc1ccccc1OCCNC(=O)CNC(=O)c1ccc(Cl)c(Cl)c1 | – | inactive: 7.92%
36 | CCn1cnc2cc(NCc3cccs3)ccc21 | inconclusive: 20.6 µM [activator, partial curve] | –
37 | Brc1ccc(-c2c[n+]3c(n2-c2ccccc2)SCC3)cc1 | inconclusive: 25.9 µM [inhibitor, partial curve, poor fit] | –
38 | COc1ccc(-c2csc(NC(=O)CSc3nc4ccccc4c(=O)[nH]3)n2)cc1 | inconclusive: 18.3 µM [activator, single point] | –
39 | CN(C)[C@@H](CO)c1nnc([C@H](Cc2ccc(O)cc2)NC(=O)C2CCNCC2)o1 | inconclusive: 13 µM [inhibitor, partial curve, poor fit] | –
40 | O=C(Cc1cccc2ccccc12)N1CCCc2ccccc21 | – | inactive: 20.2%
41 | Cc1csc(N/N=C/c2ccccn2)n1 | inconclusive: 0.651 µM [activator, partial curve, poor fit] | –
42 | O=C(CCS(=O)(=O)c1ccc(F)cc1)Nc1nnc(-c2cccs2)o1 | – | inactive: 2.89%
43 | O=C(c1ccccc1)c1ccc2cc(O)ccc2c1 | inconclusive: 25.9 µM [activator, partial curve] | –
44 | COC(=O)c1cc(S(=O)(=O)NCC2CCN(Cc3cccc(F)c3)CC2)c[nH]1 | inconclusive: 25.9 µM [activator, partial curve, poor fit] | –
45 | Nn1cnnc1N/N=C/c1ccc(Cl)cc1Cl | – | inactive: -4.62%
46 | COc1ccc(Cc2n[nH]c(=S)o2)cc1 | – | inactive: 5.34%

Row | Structure (SMILES) | Potency | activity change, negative = inhibition
47 | Cn1cc(C(=O)N2CCc3ccccc3C2)c(=O)c2cc(S(=O)(=O)N3CCCCC3)ccc21 | – | inactive: -0.0839%
48 | Cc1oc(S(=O)(=O)N2CCOCC2)cc1C(=O)Nc1ccc(F)cc1 | active: 23.1 µM | –
49 | CC(C)Cc1cc(C(=O)N2CCCC(CO)(Cc3ccc(F)cc3)C2)no1 (centres undefined) | – | inactive: 8.81%
50 | Cc1cc([N+](=O)[O-])nn1CCCC(=O)NC(C)c1ccccc1 (centres undefined) | – | inactive: 7.75%
51 | CC1=CC(C)(C)N2C(=O)C3(C(C#N)=C(N)OC4=C3C(=O)CC(C)(C)C4)c3cccc1c32 (centres undefined) | – | inactive: 2.54%
52 | Cn1c(CN2CCN(C(=O)c3ccccc3Cl)CC2)nc2cc([N+](=O)[O-])ccc21 | inconclusive: 23.1 µM [inhibitor, partial curve, poor fit] | –
53 | COc1ccccc1N1CCN(S(=O)(=O)c2cn(C)cn2)CC1 | inconclusive: 16.4 µM [activator, single point] | –
54 | CNCC(=O)Nc1ccc(OC(F)(F)F)cc1 | – | inactive: 21.8%
55 | Cc1ccc(S(=O)(=O)N2CCCCC2)cc1NC(=O)c1cncc(Br)c1 | active: 5.8 µM | –
56 | Nc1cc(=O)[nH]c(SCc2ccc(Cl)cc2)n1 | inconclusive: 29.1 µM [activator, single point] | –
57 | COc1ccc(C2NC(C(=O)O)CS2)cc1COCC(F)(F)F (centres undefined) | – | inactive: 6.66%
58 | CCOC(=O)c1c(CN2CCN(C)CC2)oc2ccc(O)cc12 | inconclusive: 5.8 µM [inhibitor, single point] | –
59 | Cc1cc(C(=O)COC(=O)c2ccc(O)cc2)c(C)n1CC1COc2ccccc2O1 (centres undefined) | inconclusive: 18.4 µM [inhibitor, partial curve, poor fit] | –
60 | Cc1cccnc1NC(=O)CCCNC(=O)c1ccc(Cl)cc1 | inconclusive: 18.3 µM [activator, partial curve, poor fit] | –
61 | CC(=O)Nc1ccc(NC(=O)CNS(=O)(=O)c2ccc(C)cc2)cc1 | – | inactive: -7.22%
62 | O=C(CCc1ccccc1)Nc1cc2c3c(c1)CC(=O)N3CCC2 | inconclusive: 2.31 µM [activator, partial curve, poor fit] | –
63 | COC(=O)c1[nH]c2ccccc2c1NC(=O)CN1CCN(C/C=C/c2ccccc2)CC1 | active: 8.2 µM | –
64 | COc1ccc(S(=O)(=O)N(C)CC(=O)NCc2ccco2)cc1Cl | inconclusive: 0.651 µM [inhibitor, partial curve, poor fit] | –
65 | Nc1nnc(SCc2nnc(-c3ccccc3)o2)s1 | inconclusive: 20.6 µM [activator, single point] | –
66 | Cc1ccc(C(=O)Nc2nnc(C)s2)cc1 | inconclusive: 5.17 µM [activator, partial curve] | –
67 | O=C(NCCC1=CCCCC1)c1c(O)nc2ccccn2c1=O | inconclusive: 18.3 µM [activator, single point] | –
68 | Cc1cc(C)cc(-n2c(SCC(=O)Nc3cccc(S(=O)(=O)NC4=NCCCCC4)c3)nc3ccccc3c2=O)c1 | – | inactive: 1.25%
69 | CCCC(C)C1c2c(c(C)c(C)oc2=O)Oc2c(C)c(C)oc(=O)c21 (centres undefined) | inconclusive: 20.6 µM [inhibitor, single point] | –
